PubChem BioAssay AID1259308, NCATS | 2017
This is a random part of about 59,000 reagents. Of all reagents, about 1,510 (2.6%) were called active. 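Calls use total luciferase alone and ignore viability, so some active siRNAs may act by altering cell number.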 Reagents against one gene are numbered here. Further read-outs or replicates are left out here.

- Aim: 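Candidate targets for better recombinant protein yield in mammalian cells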 (primary screen)
- Cells: human HEK293 embryonic kidney cells stably expressing firefly luciferase (HEK-CMV-Luc2-Hygro)
- Reagent: single siRNA against human genes, 0.8 pmol siRNA per well
- Time to read-out: 72 h
- Read-out: 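Reporter luminescence and viable-cell signal on separate replicate plates, given as percent of non-targeting control and median/MAD z-scores, plus per-cell luciferase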
- Direction: total luciferase, z-score: higher = more reporter protein produced
- Call rule: 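An siRNA counts as active if its total luciferase robust z-score exceeds 3; genes with two or more such siRNAs out of three were retested with fresh siRNAs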
- Calls: active = raised luciferase; inactive = no rise

total luciferase, z-score, by gene and reagent
SLC16A12: #1 -0.322 inactive; #2 3.37 active; #3 2.65 inactive
RNF103: #1 0.748 inactive; #2 -0.335 inactive; #3 0.338 inactive
FADD: #1 0.77 inactive; #2 1.99 inactive; #3 0.249 inactive
TCEANC2: #1 -1.41 inactive; #2 0.976 inactive; #3 0.285 inactive
CDA: #1 -0.908 inactive; #2 0.24 inactive; #3 0.322 inactive
AQP1: #1 -0.633 inactive; #2 0.344 inactive; #3 2.14 inactive
STRBP: #1 1.86 inactive; #2 -0.0144 inactive; #3 -1.26 inactive
PGGT1B: #1 -1.11 inactive; #2 0.616 inactive; #3 0.151 inactive
ANKRD42: #1 -1.66 inactive; #2 -0.716 inactive; #3 -0.564 inactive
C2orf69: #1 1.16 inactive; #2 -0.471 inactive; #3 1.14 inactive
SORCS3: #1 -0.201 inactive; #2 -0.0821 inactive; #3 -0.906 inactive
FGF14-IT1: #1 0.318 inactive; #2 0.218 inactive; #3 -1.06 inactive
COL20A1: #1 1.11 inactive; #2 -0.569 inactive; #3 0.591 inactive
MESTP3: #1 -0.396 inactive; #2 -1.04 inactive; #3 -0.0215 inactive
CILK1: #1 0.893 inactive; #2 1.12 inactive; #3 -1.78 inactive
IL6R: #1 0.702 inactive; #2 -1.64 inactive; #3 -0.527 inactive
SPINK6: #1 -0.823 inactive; #2 -0.0248 inactive; #3 -0.768 inactive
CYSLTR1: #1 -0.929 inactive; #2 1.08 inactive; #3 0.692 inactive
OTP: #1 0.631 inactive; #2 -0.14 inactive; #3 0.373 inactive

3 entries from above in another layout.
TCEANC2 #3
- total luciferase, z-score: 0.285
- outcome: inactive

CDA #1
- total luciferase, z-score: -0.908
- outcome: inactive

CDA #2
- total luciferase, z-score: 0.24
- outcome: inactive
